These are yes or no findings as the source states them, for the method shown. Binding seen in cells or lysates may run through a third protein. Some binding calls cover weakened binding; strength is not graded here.
Columns and labels:
[1] = target: GLP-1R of PathHunter CHO-K1-βarr2-EA-GLP-1R cells (UniProt P43220); assay: split reporter
GLP-1R-SmBiT = GLP-1R-SmBiT (UniProt P43220); assay: split reporter

By UniProt entry, the sequences of proteins in these tests, tags left out. Residues count along the entry.
UniProt P43220, residues 24-463: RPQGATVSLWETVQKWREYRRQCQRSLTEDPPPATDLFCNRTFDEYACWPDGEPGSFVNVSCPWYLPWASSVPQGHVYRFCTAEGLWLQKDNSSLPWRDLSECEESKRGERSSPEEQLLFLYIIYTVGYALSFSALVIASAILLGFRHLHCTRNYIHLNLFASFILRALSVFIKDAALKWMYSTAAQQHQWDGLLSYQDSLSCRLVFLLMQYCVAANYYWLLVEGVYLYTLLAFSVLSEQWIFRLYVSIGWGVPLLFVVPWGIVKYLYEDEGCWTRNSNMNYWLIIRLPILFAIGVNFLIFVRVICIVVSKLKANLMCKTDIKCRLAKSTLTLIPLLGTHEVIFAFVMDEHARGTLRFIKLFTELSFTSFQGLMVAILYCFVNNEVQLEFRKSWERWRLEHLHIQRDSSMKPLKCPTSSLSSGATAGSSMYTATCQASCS
UniProt P32121: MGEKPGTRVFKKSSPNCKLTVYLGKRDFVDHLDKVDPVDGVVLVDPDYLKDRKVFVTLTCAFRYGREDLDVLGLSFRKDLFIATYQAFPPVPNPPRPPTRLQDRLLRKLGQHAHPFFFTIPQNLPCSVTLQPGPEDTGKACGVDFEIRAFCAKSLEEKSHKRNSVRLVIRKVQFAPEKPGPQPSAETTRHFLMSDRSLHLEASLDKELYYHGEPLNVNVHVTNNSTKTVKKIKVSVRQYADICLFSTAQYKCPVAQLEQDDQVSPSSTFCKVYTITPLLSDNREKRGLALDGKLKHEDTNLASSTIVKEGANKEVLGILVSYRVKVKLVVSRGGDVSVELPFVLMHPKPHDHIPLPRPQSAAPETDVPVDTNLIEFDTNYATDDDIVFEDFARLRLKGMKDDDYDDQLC

Row | binding [1] | binding (GLP-1R-SmBiT) | Substance
1 | binds |  | β-arrestin-2-EA of PathHunter CHO-K1-βarr2-EA-GLP-1R cells (from UniProt P32121 1-409)
2 |  | binds | βarr2-LgBiT (from UniProt P32121 1-409)
